Consider seven molecules from paper doi:10.1101/2020.12.24.423824 (bioRxiv, 2020).

The chains behind the UniProt entries cited, without tags or fusion partners. Residues count along the entry.
UniProt Q99523, 78-831: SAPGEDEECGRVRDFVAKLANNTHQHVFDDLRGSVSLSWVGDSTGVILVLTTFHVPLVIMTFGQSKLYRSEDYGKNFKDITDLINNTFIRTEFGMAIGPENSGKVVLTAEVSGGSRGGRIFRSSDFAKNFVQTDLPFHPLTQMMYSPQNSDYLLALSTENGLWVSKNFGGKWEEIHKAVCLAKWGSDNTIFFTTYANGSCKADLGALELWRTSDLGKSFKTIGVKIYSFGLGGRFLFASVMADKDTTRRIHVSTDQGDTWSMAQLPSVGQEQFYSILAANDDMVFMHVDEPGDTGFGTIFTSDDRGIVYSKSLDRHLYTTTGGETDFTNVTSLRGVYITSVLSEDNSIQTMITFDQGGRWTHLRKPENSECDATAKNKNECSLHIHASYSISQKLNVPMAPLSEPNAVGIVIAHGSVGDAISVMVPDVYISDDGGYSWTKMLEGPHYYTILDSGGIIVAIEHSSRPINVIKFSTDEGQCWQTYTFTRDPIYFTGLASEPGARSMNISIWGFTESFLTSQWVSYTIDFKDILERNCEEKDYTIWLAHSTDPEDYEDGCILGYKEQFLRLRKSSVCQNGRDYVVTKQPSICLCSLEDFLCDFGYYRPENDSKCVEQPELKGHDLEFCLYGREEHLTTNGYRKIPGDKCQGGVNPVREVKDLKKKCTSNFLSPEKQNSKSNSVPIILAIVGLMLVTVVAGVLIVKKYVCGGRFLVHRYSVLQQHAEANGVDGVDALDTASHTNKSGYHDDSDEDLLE
UniProt Q9Y4G2, whole entry: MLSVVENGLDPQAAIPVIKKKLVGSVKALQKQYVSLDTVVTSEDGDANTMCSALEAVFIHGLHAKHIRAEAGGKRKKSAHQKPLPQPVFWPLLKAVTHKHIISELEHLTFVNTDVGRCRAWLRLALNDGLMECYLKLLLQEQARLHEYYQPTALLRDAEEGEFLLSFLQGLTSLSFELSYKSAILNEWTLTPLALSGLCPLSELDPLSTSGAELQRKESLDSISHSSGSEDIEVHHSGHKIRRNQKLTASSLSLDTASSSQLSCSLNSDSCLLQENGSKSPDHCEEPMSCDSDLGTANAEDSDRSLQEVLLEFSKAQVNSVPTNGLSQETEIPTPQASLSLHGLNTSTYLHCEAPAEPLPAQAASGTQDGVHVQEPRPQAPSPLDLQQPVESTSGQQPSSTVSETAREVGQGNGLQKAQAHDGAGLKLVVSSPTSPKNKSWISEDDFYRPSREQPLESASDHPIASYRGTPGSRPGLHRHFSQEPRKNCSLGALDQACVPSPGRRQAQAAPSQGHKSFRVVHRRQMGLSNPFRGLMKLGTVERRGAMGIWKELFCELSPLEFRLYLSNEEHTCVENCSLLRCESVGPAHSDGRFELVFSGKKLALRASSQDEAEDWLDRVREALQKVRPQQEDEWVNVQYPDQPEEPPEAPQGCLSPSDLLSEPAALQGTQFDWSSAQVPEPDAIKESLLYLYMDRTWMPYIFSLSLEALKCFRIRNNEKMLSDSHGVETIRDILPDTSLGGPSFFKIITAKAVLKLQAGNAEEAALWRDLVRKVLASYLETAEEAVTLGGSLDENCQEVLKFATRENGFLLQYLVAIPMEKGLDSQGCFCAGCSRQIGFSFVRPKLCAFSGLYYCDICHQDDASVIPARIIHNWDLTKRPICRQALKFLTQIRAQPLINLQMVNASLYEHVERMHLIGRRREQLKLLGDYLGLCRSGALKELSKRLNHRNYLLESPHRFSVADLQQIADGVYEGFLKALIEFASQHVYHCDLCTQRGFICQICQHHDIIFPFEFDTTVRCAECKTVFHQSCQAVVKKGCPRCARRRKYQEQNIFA

No constants are given. Whether binding was seen depends on the method and setting. Binding seen in cells or lysates may run through a third protein. Some results given as binding are weak or reduced against the parent protein; the word gives no strength. For some of these results: Sequences can lack the tags named with a protein.

One assay concerns the target T1, RlucII-CLN3 (UniProt Q13286).
T1 sequence: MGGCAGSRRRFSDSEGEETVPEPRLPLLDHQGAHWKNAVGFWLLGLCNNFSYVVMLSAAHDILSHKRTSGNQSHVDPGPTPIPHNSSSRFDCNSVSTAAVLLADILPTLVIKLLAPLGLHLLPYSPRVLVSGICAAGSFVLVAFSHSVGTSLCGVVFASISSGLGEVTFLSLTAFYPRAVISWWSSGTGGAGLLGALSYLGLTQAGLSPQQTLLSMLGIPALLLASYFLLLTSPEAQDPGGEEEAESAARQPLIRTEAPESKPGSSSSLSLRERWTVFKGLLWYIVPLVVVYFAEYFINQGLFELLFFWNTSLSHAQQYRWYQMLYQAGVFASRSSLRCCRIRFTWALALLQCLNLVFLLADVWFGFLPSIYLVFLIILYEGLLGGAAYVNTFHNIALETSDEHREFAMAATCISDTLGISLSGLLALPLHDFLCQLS
As to the kind of experiment: FRET or BRET. On the technique in general: Bioluminescence resonance energy transfer reports proximity on the nanometre scale.

The target in another assay is Vps26A-nLuc (UniProt O75436). As to the kind of experiment: FRET or BRET.
The target in another assay is RlucII-Rab7A (UniProt P51149 1-207). As to the kind of experiment: FRET or BRET.
In assay [1] the target is endogenous Vps26A (human (endogenous in HeLa)) (UniProt O75436). As to the kind of experiment: co-IP.
For a further assay, the target named is T2, CLN3 (UniProt Q13286).
T2 sequence: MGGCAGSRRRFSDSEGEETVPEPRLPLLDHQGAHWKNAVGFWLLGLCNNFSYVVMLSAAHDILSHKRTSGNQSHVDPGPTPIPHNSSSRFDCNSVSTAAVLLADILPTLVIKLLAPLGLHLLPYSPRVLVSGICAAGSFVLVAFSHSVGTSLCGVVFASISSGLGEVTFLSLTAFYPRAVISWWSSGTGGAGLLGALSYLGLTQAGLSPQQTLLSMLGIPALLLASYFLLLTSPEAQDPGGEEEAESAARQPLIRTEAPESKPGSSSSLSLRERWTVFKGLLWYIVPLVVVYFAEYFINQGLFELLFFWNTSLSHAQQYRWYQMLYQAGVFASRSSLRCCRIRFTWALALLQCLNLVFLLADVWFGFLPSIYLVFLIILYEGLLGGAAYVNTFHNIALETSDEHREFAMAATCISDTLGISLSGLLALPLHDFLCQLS
As to the kind of experiment: co-IP.

The target in another assay is sortilin (UniProt Q99523). As to the kind of experiment: co-IP.

In the case of “sortilin-YFP (from UniProt Q99523 78-831) (receptor)”, the binding entry in the assay with RlucII-CLN3 and with Vps26A-nLuc was “binds” each time.
Take “PLEKHM1-GFP10 (from UniProt Q9Y4G2 1-1056)”: the binding entry in the assay with RlucII-Rab7A was “binds”.
For the molecule Rab7A (from UniProt P51149 1-207), the binding result in assay [1] is recorded as “binds”.
As for “endogenous sortilin (from UniProt Q99523 78-831) (receptor)”, in assay [1], the binding entry is on record as “binds”.
As to “Vps26A-GFP10 (from UniProt O75436 1-327)”, the binding result in the assay with RlucII-CLN3 and in the assay with RlucII-Rab7A was “binds” in each case.

B1: CLN5 (protein, UniProt O75503 44-358)
chain: VSGIPSRRHWPVPYKRFDFRPKPDPYCQAKYTFCPTGSPIPVMEGDDDIEVFRLQAPVWEFKYGDLLGHLKIMHDAIGFRSTLTGKNYTMEWYELFQLGNCTFPHLRPEMDAPFWCNQGAACFFEGIDDVHWKENGTLVQVATISGNMFNQMAKWVKQDNETGIYYETWNVKASPEKGAETWFDSYDCSKFVLRTFNKLAEFGAEFKNIETNYTRIFLYSGEPTYLGNETSVFGPTGNKTLGLAIKRFYYPFKPHLPTKEFLLSLLQIFDAVIVHKQFYLFYNFEYWFLPMKFPFIKITYEEIPLPIRNKTLSGL
On to B1, for which the binding result with CLN3 and with sortilin was “binds” in each case.

B2: GFP10-CLN3 (natural protein, UniProt Q13286 1-438, looked up)
chain: MGGCAGSRRRFSDSEGEETVPEPRLPLLDHQGAHWKNAVGFWLLGLCNNFSYVVMLSAAHDILSHKRTSGNQSHVDPGPTPIPHNSSSRFDCNSVSTAAVLLADILPTLVIKLLAPLGLHLLPYSPRVLVSGICAAGSFVLVAFSHSVGTSLCGVVFASISSGLGEVTFLSLTAFYPRAVISWWSSGTGGAGLLGALSYLGLTQAGLSPQQTLLSMLGIPALLLASYFLLLTSPEAQDPGGEEEAESAARQPLIRTEAPESKPGSSSSLSLRERWTVFKGLLWYIVPLVVVYFAEYFINQGLFELLFFWNTSLSHAQQYRWYQMLYQAGVFASRSSLRCCRIRFTWALALLQCLNLVFLLADVWFGFLPSIYLVFLIILYEGLLGGAAYVNTFHNIALETSDEHREFAMAATCISDTLGISLSGLLALPLHDFLCQLS
For the molecule B2, in the assay with RlucII-Rab7A, the binding result was “binds”.
